Test results published in the supplement of paper PMC8728848.
The list shows a part of the results.

Key:
Assay in all cases: glycan array binding signal (z-score within array); higher = stronger binding
Details in all cases: glycan notation: IUPAC condensed, linker removed
[1] = biological target: Gal(b1-3)GlcNAc(b1-6)[Gal(b1-3)]GalNAc
In short: (§1)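 Glycan array data came from 3228 arrays in the Consortium for Functional Glycomics database, and only arrays with an available protein sequence were kept. Glycan names were put into IUPAC-condensed notation, and columns mapping to the same glycan were averaged. The binding signal is a within-array Z-score, averaged across arrays of one protein sequence run at different concentrations or buffers and across linkers. A negative Z-score can be read as non-binding.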

Gal(b1-3)GlcNAc6S = biological target: Gal(b1-3)GlcNAc6S
In short: as §1

[2] = biological target: Gal(b1-3)[Fuc(a1-4)]GlcNAc
In short: as §1

[3] = biological target: Gal(b1-3)[Fuc(a1-4)]GlcNAc(b1-2)Man
In short: as §1

[4] = biological target: Gal(b1-3)[Fuc(a1-4)]GlcNAc(b1-2)Man(a1-3)[Gal(b1-3)[Fuc(a1-4)]GlcNAc(b1-2)Man(a1-6)]Man(b1-4)GlcNAc(b1-4)[Fuc(a1-6)]GlcNAc
In short: as §1

[5] = biological target: Gal(b1-3)[Fuc(a1-4)]GlcNAc(b1-3)Gal(b1-3)[Fuc(a1-4)]GlcNAc
In short: as §1

[6] = biological target: Gal(b1-3)[Fuc(a1-4)]GlcNAc(b1-3)Gal(b1-4)[Fuc(a1-3)]GlcNAc
In short: as §1

[7] = biological target: Gal(b1-3)[Fuc(a1-4)]GlcNAc(b1-6)GalNAc
In short: as §1

[8] = biological target: Gal(b1-3)[GlcNAc(b1-6)]GalNAc
In short: as §1

[9] = biological target: Gal(b1-3)[Neu5Ac(a2-6)]GalNAc
In short: as §1

[10] = biological target: Gal(b1-3)[Neu5Ac(a2-6)]GlcNAc(b1-4)Gal(b1-4)Glc
In short: as §1

[11] = biological target: Gal(b1-3)[Neu5Ac(b2-6)]GalNAc
In short: as §1

Gal(b1-4)Gal = biological target: Gal(b1-4)Gal
In short: as §1

[12] = biological target: Gal(b1-4)GalNAc(a1-3)[Fuc(a1-2)]Gal(b1-4)GlcNAc
In short: as §1

[13] = biological target: Gal(b1-4)GalNAc(b1-3)[Fuc(a1-2)]Gal(b1-4)GlcNAc
In short: as §1

Gal(b1-4)Glc = biological target: Gal(b1-4)Glc
In short: as §1

Gal(b1-4)Glc6S = biological target: Gal(b1-4)Glc6S
In short: as §1

Gal(b1-4)GlcNAc = biological target: Gal(b1-4)GlcNAc
In short: as §1

[14] = biological target: Gal(b1-4)GlcNAc(a1-6)Gal(b1-4)GlcNAc
In short: as §1

Gal(b1-4)GlcNAc(b1-2)Man = biological target: Gal(b1-4)GlcNAc(b1-2)Man
In short: as §1

[15] = biological target: Gal(b1-4)GlcNAc(b1-2)Man(a1-3)Man(b1-4)GlcNAc(b1-4)GlcNAc
In short: as §1

[16] = biological target: Gal(b1-4)GlcNAc(b1-2)Man(a1-3)[Gal(b1-4)GlcNAc(b1-2)Man(a1-6)]Man(b1-4)GlcNAc(b1-4)GlcNAc
In short: as §1

[17] = biological target: Gal(b1-4)GlcNAc(b1-2)Man(a1-3)[Gal(b1-4)GlcNAc(b1-2)Man(a1-6)]Man(b1-4)GlcNAc(b1-4)[Fuc(a1-6)]GlcNAc
In short: as §1

[18] = biological target: Gal(b1-4)GlcNAc(b1-2)Man(a1-3)[Gal(b1-4)GlcNAc(b1-2)Man(a1-6)][Gal(b1-4)GlcNAc(b1-4)]Man(b1-4)GlcNAc(b1-4)[Fuc(a1-6)]GlcNAc
In short: as §1

[19] = biological target: Gal(b1-4)GlcNAc(b1-2)Man(a1-3)[Gal(b1-4)GlcNAc(b1-2)Man(a1-6)][GlcNAc(b1-4)]Man(b1-4)GlcNAc(b1-4)[Fuc(a1-6)]GlcNAc
In short: as §1

[20] = biological target: Gal(b1-4)GlcNAc(b1-2)Man(a1-3)[GlcNAc(b1-2)Man(a1-6)]Man(b1-4)GlcNAc(b1-4)GlcNAc
In short: as §1

[21] = biological target: Gal(b1-4)GlcNAc(b1-2)Man(a1-3)[GlcNAc(b1-4)][Gal(b1-4)GlcNAc(b1-2)Man(a1-6)]Man(b1-4)GlcNAc(b1-4)GlcNAc
In short: as §1

[22] = biological target: Gal(b1-4)GlcNAc(b1-2)Man(a1-3)[Man(a1-6)]Man(b1-4)GlcNAc(b1-4)GlcNAc
In short: as §1

[23] = biological target: Gal(b1-4)GlcNAc(b1-2)Man(a1-6)Man(b1-4)GlcNAc(b1-4)GlcNAc
In short: as §1

[24] = biological target: Gal(b1-4)GlcNAc(b1-2)Man(a1-6)[GlcNAc(b1-2)Man(a1-3)]Man(b1-4)GlcNAc(b1-4)GlcNAc
In short: as §1

[25] = biological target: Gal(b1-4)GlcNAc(b1-2)Man(a1-6)[Man(a1-3)]Man(b1-4)GlcNAc(b1-4)GlcNAc
In short: as §1

[26] = biological target: Gal(b1-4)GlcNAc(b1-2)[Gal(b1-4)GlcNAc(b1-4)]Man(a1-3)[Gal(b1-4)GlcNAc(b1-2)Man(a1-6)]Man(b1-4)GlcNAc(b1-4)GlcNAc
In short: as §1

[27] = biological target: Gal(b1-4)GlcNAc(b1-2)[Gal(b1-4)GlcNAc(b1-4)]Man(a1-3)[Gal(b1-4)GlcNAc(b1-2)[Gal(b1-4)GlcNAc(b1-6)]Man(a1-6)]Man(b1-4)GlcNAc(b1-4)GlcNAc
In short: as §1

[28] = biological target: Gal(b1-4)GlcNAc(b1-2)[Gal(b1-4)GlcNAc(b1-4)]Man(a1-3)[GlcNAc(b1-4)][Gal(b1-4)GlcNAc(b1-2)Man(a1-6)]Man(b1-4)GlcNAc(b1-4)GlcNAc
In short: as §1

[29] = biological target: Gal(b1-4)GlcNAc(b1-2)[Gal(b1-4)GlcNAc(b1-4)]Man(a1-3)[GlcNAc(b1-4)][Gal(b1-4)GlcNAc(b1-2)[Gal(b1-4)GlcNAc(b1-6)]Man(a1-6)]Man(b1-4)GlcNAc(b1-4)GlcNAc
In short: as §1

[30] = biological target: Gal(b1-4)GlcNAc(b1-2)[Gal(b1-4)GlcNAc(b1-6)]Man(a1-6)[Gal(b1-4)GlcNAc(b1-2)Man(a1-3)]Man(b1-4)GlcNAc(b1-4)GlcNAc
In short: as §1

[31] = biological target: Gal(b1-4)GlcNAc(b1-2)[Gal(b1-4)GlcNAc(b1-6)]Man(a1-6)[Gal(b1-4)GlcNAc(b1-2)Man(a1-3)]Man(b1-4)GlcNAc(b1-4)[Fuc(a1-6)]GlcNAc
In short: as §1

B1: PX9961M-bvu-482-23-482 (Bacteroides vulgatus) (protein)
chain: WLDLAPSTQVDTETSINVLSDIEFTLNGIYSTMQSSDAYSGRLVYYGDVTGDDMQAVSSTKRTGNYYRFNFTKDNGPSSHWSYLYSIIQNCNLILMNVDKLSIDEDETEYKNDLKGQALAIRGMALFDLTRIFGYPYLKDNGASLGVPIVKELSTIDSKPARNTVAECYTEIISDLKNSTELLSGDFNKGKVNRWAAMTLLSRVYLYKGEYNEALTMAENAIKGAEKEGYALWTNEEYPTAWGNDASASNPGEILFEIVNLTTDSPGKESMGYLNSYNGYDDMCITCSFYQLLKKDPKDVRLKILSFDKKYYAYVNKYQPQQGENITDANIPLIRLSEAYLNAAEAAVQTGDNAKAVKYLNSIVQRANPENSVEGKTLTLENVLDERRKELVAEGHRMYDVIRNGMTVKRIDVKDSDINKTKHNTAYMEYDWNFHKILLPIPKKEMDANPNMKQNPGYVD
Q: B1 was tested. Which “glycan array binding signal (z-score)” value [1] did it give?
A: The value was -0.362.

Q: What about the “glycan array binding signal (z-score)” value (Gal(b1-3)GlcNAc6S) of the same binder?
A: The value was 0.004.

Q: What about the “glycan array binding signal (z-score)” value [2] of the same binder?
A: Its value is 1.63.

Q: What about the “glycan array binding signal (z-score)” value [3] of the same binder?
A: Its value is 1.31.

Q: And the “glycan array binding signal (z-score)” value [4]?
A: Its value is -0.174.

Q: What about the “glycan array binding signal (z-score)” value [5] of the same binder?
A: The value was -0.553.

Q: And the “glycan array binding signal (z-score)” value [6]?
A: The value was -0.266.

Q: And the “glycan array binding signal (z-score)” value [7]?
A: The value was -0.307.

Q: What about the “glycan array binding signal (z-score)” value [8] of the same binder?
A: Its value is 0.166.

Q: And the “glycan array binding signal (z-score)” value [9]?
A: Its value is -0.734.

Q: And the “glycan array binding signal (z-score)” value [10]?
A: The value was -0.052.

Q: And the “glycan array binding signal (z-score)” value [11]?
A: Its value is -0.587.

Q: And the “glycan array binding signal (z-score)” value (Gal(b1-4)Gal)?
A: The value was 0.253.

Q: And the “glycan array binding signal (z-score)” value [12]?
A: The value was -0.942.

Q: And the “glycan array binding signal (z-score)” value [13]?
A: Its value is -0.62.

Q: And the “glycan array binding signal (z-score)” value (Gal(b1-4)Glc)?
A: The value was -0.171.

Q: And the “glycan array binding signal (z-score)” value (Gal(b1-4)Glc6S)?
A: Its value is -0.022.

Q: What about the “glycan array binding signal (z-score)” value (Gal(b1-4)GlcNAc) of the same binder?
A: The value was -0.389.

Q: And the “glycan array binding signal (z-score)” value [14]?
A: Its value is 1.66.

Q: What about the “glycan array binding signal (z-score)” value (Gal(b1-4)GlcNAc(b1-2)Man) of the same binder?
A: Its value is 0.485.

Q: What about the “glycan array binding signal (z-score)” value [15] of the same binder?
A: Its value is 0.327.

Q: What about the “glycan array binding signal (z-score)” value [16] of the same binder?
A: Its value is -0.313.

Q: What about the “glycan array binding signal (z-score)” value [17] of the same binder?
A: The value was 0.373.

Q: What about the “glycan array binding signal (z-score)” value [18] of the same binder?
A: The value was -0.321.

Q: What about the “glycan array binding signal (z-score)” value [19] of the same binder?
A: Its value is 0.416.

Q: What about the “glycan array binding signal (z-score)” value [20] of the same binder?
A: The value was -0.875.

Q: What about the “glycan array binding signal (z-score)” value [21] of the same binder?
A: Its value is -1.01.

Q: What about the “glycan array binding signal (z-score)” value [22] of the same binder?
A: The value was 0.437.

Q: What about the “glycan array binding signal (z-score)” value [23] of the same binder?
A: The value was 0.003.

Q: And the “glycan array binding signal (z-score)” value [24]?
A: The value was 0.086.

Q: And the “glycan array binding signal (z-score)” value [25]?
A: Its value is -0.551.

Q: And the “glycan array binding signal (z-score)” value [26]?
A: The value was 0.427.

Q: What about the “glycan array binding signal (z-score)” value [27] of the same binder?
A: Its value is 1.23.

Q: What about the “glycan array binding signal (z-score)” value [28] of the same binder?
A: The value was -0.598.

Q: And the “glycan array binding signal (z-score)” value [29]?
A: Its value is 0.295.

Q: And the “glycan array binding signal (z-score)” value [30]?
A: The value was 0.514.

Q: What about the “glycan array binding signal (z-score)” value [31] of the same binder?
A: The value was 0.302.
